Measurements from “University of Dundee, Small-Polar-MMV Screening Library” (2021), ChEMBL document CHEMBL3988442.

Amino acid sequences for entries named in this document (tags omitted).
UniProt E9BF75, entry or part of it: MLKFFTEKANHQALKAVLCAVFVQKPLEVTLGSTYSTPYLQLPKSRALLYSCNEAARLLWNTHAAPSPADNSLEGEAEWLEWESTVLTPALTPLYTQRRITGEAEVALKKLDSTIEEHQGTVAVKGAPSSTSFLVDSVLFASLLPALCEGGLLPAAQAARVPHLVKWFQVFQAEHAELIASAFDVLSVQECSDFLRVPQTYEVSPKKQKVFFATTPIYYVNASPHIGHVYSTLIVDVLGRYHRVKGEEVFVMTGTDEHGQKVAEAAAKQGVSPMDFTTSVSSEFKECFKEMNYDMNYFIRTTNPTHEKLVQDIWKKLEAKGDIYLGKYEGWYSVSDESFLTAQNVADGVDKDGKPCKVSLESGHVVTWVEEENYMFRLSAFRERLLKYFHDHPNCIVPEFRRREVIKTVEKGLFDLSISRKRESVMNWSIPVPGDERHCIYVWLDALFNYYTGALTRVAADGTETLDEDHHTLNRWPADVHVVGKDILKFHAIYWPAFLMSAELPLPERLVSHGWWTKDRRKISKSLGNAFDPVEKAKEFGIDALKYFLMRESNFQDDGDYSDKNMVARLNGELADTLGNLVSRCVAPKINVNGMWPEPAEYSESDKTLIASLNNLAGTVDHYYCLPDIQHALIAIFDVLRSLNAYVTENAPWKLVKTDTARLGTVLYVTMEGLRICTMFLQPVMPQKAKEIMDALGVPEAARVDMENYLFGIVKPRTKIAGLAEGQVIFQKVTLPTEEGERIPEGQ

Results are percentages, as filed. How 0% and 100% were set is not recorded. Most values in the screen are low, and negative values occur. Compounds were drawn at random from those tested, without regard to their results. A dash means the value is not listed here; it may have been measured.

LdMetRS: 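Methionyl-tRNA synthetase (putative), Leishmania donovani (UniProt E9BF75). Primary screen of methionyl-tRNA synthetase; the read-out is not stated. The test concentration is not given. Values are per cent inhibition. Of about 68,000 compounds tested this way, about 24 (0.035%) reached 50% or more in at least one test.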
Mtb heat-shock: 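Assay on Mycobacterium tuberculosis, filed only as a heat shock assay from Cornell; the read-out is not stated. The concentration is filed as 10 mM, unlikely as a test dose, so the dose is not known. The record gives no direction; compounds that gave an IC50 in retests scored well above the rest, so higher reads as stronger inhibition. Of about 69,000 compounds tested this way, about 930 (1.4%) reached 50% or more in at least one test.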

{"smiles": "CCc1ccc(CNC2(c3ccc(F)cc3)CCOCC2)o1", "Mtb heat-shock": -2.783}
{"smiles": "CC1CCN(S(=O)(=O)N2CCC(Oc3cnccn3)CC2)CC1", "LdMetRS": 22.92, "Mtb heat-shock": -1.496}
{"smiles": "Cc1ccc(C2(CN(C)Cc3c(C)nn(C)c3C)CCNCC2)nc1", "LdMetRS": 9.375, "Mtb heat-shock": -24.15}
{"smiles": "CC(=O)N(Cc1noc(C)n1)C1CCN(Cc2c(C)noc2C)C1", "stereo": "stereo unspecified", "LdMetRS": 14.21, "Mtb heat-shock": -7.424}
{"smiles": "CN(C)C(=O)N1CCC(c2nc3ccc(N4CCCC4)cn3n2)CC1", "LdMetRS": 2.256}
{"smiles": "CN(C)C(=O)C1OC2(CCNCC2)c2ccccc21", "stereo": "stereo unspecified", "LdMetRS": 2.017}
{"smiles": "CN1CCN(CCCNC(=O)c2cc(Cl)c3c(c2)OCO3)CC1", "LdMetRS": 17.7, "Mtb heat-shock": 2.17}
{"smiles": "CC(C)c1nc2n(n1)CC(NCc1ncc(C(C)(C)C)o1)CC2", "stereo": "stereo unspecified", "LdMetRS": 18.71, "Mtb heat-shock": -4.613}
{"smiles": "O=S(=O)(NCCNc1cc(-n2cccc2)ncn1)c1cccs1", "LdMetRS": 16.55, "Mtb heat-shock": 9.38}
{"smiles": "Cc1[nH]c(C2(N)CCCCC2)nc(=O)c1C", "LdMetRS": 16.19}
{"smiles": "[H][C@]12CCN(C(=O)NCc3ccccc3)C[C@@]1([H])OCCN(C(C)=O)C2", "Mtb heat-shock": 22.49}
{"smiles": "COCCC(=O)N1CCCCC1c1ccc(F)cc1", "stereo": "stereo unspecified", "LdMetRS": 12.59, "Mtb heat-shock": -6.857}
{"smiles": "Cc1cc2[nH]c(O)nc2cc1NCc1ccc(F)cc1", "LdMetRS": 17.37, "Mtb heat-shock": 17.75}
{"smiles": "COc1cccc(CN(C)Cn2nc(C(C)(C)C)ccc2=O)c1", "LdMetRS": 10.48, "Mtb heat-shock": -10.71}
{"smiles": "CCC(=O)Nc1nnc(CCCOc2ccccc2)s1", "LdMetRS": 13.69, "Mtb heat-shock": 9.186}
{"smiles": "Cc1cc(C(=O)NCc2ccnc(N(C)C)c2)c(C)o1", "LdMetRS": 14.17, "Mtb heat-shock": -17.49}
{"smiles": "CN(CCc1cn[nH]c1)C(=O)CCc1ccc(Cl)cc1", "LdMetRS": 12.6, "Mtb heat-shock": -1.682}
{"smiles": "CC(C)C(O)CNC(=O)Nc1cnn(Cc2ccccc2)c1", "stereo": "stereo unspecified", "LdMetRS": 12.63, "Mtb heat-shock": -6.256}
{"smiles": "CC(=O)NC[C@@H]1C=C(C)[C@H](CC(=O)NCc2cccnc2)C[C@H]1C(C)C", "LdMetRS": 7.143, "Mtb heat-shock": -37.03}
{"smiles": "O=C(c1cc(-n2cnnn2)ccc1Cl)N1CCCCCC1", "LdMetRS": 19.83, "Mtb heat-shock": 7.998}
{"smiles": "CN1CCS(=O)(=O)[C@@H]2CCN(C(=O)c3ccccc3)CC[C@@H]21", "LdMetRS": 7.904}
{"smiles": "Cc1ccc(S(=O)(=O)c2ncccc2CN2CCOCC2)cc1", "LdMetRS": 8.788, "Mtb heat-shock": -21.96}
{"smiles": "O=C(O)C(F)(F)F.O=C1CC(c2ccncc2)C2(CCN(C(=O)NC3CC3)CC2)N1", "stereo": "stereo unspecified", "Mtb heat-shock": -7.203}
{"smiles": "CCCN1CCCCCC1Cc1c(C(=O)NC)sc2ccccc12", "stereo": "stereo unspecified", "LdMetRS": 12.73, "Mtb heat-shock": -20.95}
{"smiles": "COCCN1CC[C@H](OC)[C@@H]1Cc1ccccc1", "LdMetRS": 6.628}
{"smiles": "CN1CCc2c1nc1c(c2N)CCC1", "LdMetRS": 18.92, "Mtb heat-shock": -2.346}
{"smiles": "Cc1ccc(-c2cc(N)c(=O)n(CC(=O)NCC3CC3)n2)s1", "LdMetRS": 15.41, "Mtb heat-shock": 1.71}
{"smiles": "Cc1cc(CN2CCN(C(=O)NCc3c(C)noc3C)CC2)on1", "LdMetRS": 17.71, "Mtb heat-shock": 4.67}
{"smiles": "COc1cccc(CNc2nc(O)cc(C3CC(=O)N(C)C3)n2)c1", "stereo": "stereo unspecified", "LdMetRS": 18.15, "Mtb heat-shock": -9.117}
{"smiles": "CCn1ncc2c(C(F)F)cc(-c3ccn(C)n3)nc21", "LdMetRS": 26.88, "Mtb heat-shock": -5.507}
{"smiles": "COCC(=O)N1CCO[C@]2(CCC[C@H]2COC)C1", "LdMetRS": 4.692, "Mtb heat-shock": 9.043}
{"smiles": "O=S(=O)(c1cccnc1)N1C[C@H]2CCC[C@@]2(COc2ccccn2)C1", "LdMetRS": 8.934}
{"smiles": "Cn1cc(CN2CCc3ncn(C)c3C2COCc2cccnc2)cn1", "stereo": "stereo unspecified", "LdMetRS": 12.05, "Mtb heat-shock": -17.01}
{"smiles": "O=C1CCC(c2nc(C3CCN(C(=O)Cc4cccs4)CC3)no2)N1", "stereo": "stereo unspecified", "LdMetRS": 19.81, "Mtb heat-shock": -6.135}
{"smiles": "CC(C)CN1C[C@@H]2CN(c3cnccn3)C[C@@H]2C1=O", "LdMetRS": -3.361}
{"smiles": "COc1cccc(-c2noc(C3CCN(Cc4cccs4)C3)n2)c1", "stereo": "stereo unspecified", "LdMetRS": 10.14}
{"smiles": "[H][C@]12CN(c3ncc(C)cn3)C[C@@]1([H])S(=O)(=O)CC[C@@H]2C(=O)NC(C)C", "Mtb heat-shock": -14.19}

Some entries from above, unchanged:

| SMILES | LdMetRS | Mtb heat-shock |
|---|---|---|
| `Cc1ccc(-c2cc(N)c(=O)n(CC(=O)NCC3CC3)n2)s1` | 15.41 | 1.71 |
| `Cc1[nH]c(C2(N)CCCCC2)nc(=O)c1C` | 16.19 | - |
| `CN(C)C(=O)N1CCC(c2nc3ccc(N4CCCC4)cn3n2)CC1` | 2.256 | - |